Publication PMC2824829
These are yes or no findings as the source states them, for the method shown. Binding seen in cells or lysates may run through a third protein. Some results given as binding are weak or reduced against the parent protein; the word gives no strength. Tags and fused reporters may be left off the sequences shown.

By UniProt entry, the sequences of proteins in these tests, tags left out. Where a name states a change or a piece, a line headed by the entry shows the natural chain unless it says otherwise. Chains listed by the source or under a name are the forms on record and can include a tag or linker.
UniProt Q99LI8: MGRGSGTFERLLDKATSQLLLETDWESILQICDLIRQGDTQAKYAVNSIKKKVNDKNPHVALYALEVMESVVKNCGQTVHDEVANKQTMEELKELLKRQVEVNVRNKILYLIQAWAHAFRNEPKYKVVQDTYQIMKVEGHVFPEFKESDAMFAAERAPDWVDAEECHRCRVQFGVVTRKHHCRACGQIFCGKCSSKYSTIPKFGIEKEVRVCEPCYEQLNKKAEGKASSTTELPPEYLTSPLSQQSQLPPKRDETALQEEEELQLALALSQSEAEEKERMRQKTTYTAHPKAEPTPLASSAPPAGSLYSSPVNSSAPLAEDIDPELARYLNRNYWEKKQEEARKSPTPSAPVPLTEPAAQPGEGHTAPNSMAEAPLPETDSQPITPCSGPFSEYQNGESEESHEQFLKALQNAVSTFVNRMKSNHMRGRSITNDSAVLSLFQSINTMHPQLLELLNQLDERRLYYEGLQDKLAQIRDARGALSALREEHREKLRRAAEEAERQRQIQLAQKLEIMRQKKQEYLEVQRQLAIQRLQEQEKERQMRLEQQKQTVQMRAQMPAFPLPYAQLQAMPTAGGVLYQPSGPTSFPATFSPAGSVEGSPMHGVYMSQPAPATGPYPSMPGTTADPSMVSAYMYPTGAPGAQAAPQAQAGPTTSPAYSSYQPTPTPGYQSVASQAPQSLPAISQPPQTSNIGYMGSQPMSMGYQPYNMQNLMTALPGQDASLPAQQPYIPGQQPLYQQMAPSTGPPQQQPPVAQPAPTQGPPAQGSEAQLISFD
Myc-tagged mouse HRS missing the coiled-coil domain (Myc-HRS-ΔCC) (Q99LI8, form named): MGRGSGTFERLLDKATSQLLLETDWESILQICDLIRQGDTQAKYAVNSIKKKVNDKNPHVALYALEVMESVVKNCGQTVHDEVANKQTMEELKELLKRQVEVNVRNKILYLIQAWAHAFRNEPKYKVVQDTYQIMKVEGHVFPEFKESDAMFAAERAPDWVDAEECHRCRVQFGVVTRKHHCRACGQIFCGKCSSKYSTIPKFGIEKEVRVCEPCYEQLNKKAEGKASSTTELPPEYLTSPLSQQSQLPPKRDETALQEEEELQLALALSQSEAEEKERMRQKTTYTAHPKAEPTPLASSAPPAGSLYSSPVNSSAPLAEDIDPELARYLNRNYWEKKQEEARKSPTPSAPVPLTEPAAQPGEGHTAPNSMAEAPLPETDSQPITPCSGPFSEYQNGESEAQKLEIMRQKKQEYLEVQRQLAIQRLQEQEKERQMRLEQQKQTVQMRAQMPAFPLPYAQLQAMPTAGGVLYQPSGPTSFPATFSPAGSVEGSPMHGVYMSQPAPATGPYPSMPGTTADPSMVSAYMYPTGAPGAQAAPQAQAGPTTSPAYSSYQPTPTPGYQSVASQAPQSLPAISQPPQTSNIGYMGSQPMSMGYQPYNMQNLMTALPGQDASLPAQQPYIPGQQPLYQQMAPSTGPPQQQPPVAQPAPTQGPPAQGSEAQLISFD

Experiments:
[1] = target: T1, GFP-tagged GASP1/GPRASP1 (GFP-GASP1) (human) (UniProt Q5JY77); assay: co-IP; GFP-tagged proteins co-expressed with DYS-HA in HEK293 cells; DYS-HA detected in the immunoprecipitates of the GFP-tagged proteins from cell lysates
T1 sequence: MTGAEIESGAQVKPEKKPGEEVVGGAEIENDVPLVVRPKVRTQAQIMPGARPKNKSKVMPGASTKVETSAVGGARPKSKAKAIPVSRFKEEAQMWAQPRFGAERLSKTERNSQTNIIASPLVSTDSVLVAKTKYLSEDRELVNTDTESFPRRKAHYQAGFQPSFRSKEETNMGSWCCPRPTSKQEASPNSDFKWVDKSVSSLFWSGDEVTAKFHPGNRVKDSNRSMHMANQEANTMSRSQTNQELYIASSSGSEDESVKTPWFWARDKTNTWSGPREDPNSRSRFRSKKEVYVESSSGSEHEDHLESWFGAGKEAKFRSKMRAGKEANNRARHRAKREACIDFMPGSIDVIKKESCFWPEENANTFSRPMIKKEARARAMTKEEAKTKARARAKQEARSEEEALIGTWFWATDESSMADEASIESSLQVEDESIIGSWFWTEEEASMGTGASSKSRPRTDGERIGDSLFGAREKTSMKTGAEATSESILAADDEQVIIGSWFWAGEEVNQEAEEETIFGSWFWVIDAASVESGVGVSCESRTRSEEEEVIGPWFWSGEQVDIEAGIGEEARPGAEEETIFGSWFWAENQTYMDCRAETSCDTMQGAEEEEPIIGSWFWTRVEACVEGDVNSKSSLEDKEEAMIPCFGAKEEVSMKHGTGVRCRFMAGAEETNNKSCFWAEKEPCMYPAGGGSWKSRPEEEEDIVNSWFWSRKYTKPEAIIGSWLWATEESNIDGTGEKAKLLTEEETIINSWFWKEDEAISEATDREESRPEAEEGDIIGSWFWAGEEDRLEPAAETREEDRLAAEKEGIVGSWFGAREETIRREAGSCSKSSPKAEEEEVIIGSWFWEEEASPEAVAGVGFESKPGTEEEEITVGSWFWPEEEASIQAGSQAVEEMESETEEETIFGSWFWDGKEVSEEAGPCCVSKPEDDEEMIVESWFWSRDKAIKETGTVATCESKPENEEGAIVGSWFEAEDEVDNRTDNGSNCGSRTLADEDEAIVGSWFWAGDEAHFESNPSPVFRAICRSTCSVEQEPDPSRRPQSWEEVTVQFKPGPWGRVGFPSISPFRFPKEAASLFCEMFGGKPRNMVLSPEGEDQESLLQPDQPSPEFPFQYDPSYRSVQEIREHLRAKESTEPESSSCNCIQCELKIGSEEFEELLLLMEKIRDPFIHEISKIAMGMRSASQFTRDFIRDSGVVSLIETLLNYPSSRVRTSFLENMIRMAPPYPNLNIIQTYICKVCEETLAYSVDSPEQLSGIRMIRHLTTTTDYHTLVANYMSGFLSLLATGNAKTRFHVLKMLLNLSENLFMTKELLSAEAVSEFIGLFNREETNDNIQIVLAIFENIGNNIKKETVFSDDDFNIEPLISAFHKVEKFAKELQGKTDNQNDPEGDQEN

[2] = target: T2, GFP-tagged PDZ domain of mouse alpha-1 syntrophin (GFP-PDZ) (mouse) (UniProt Q61234); assay: as above
T2 sequence: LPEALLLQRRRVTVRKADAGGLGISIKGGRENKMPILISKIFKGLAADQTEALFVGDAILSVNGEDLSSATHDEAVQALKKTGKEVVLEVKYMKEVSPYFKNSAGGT

[3] = target: Myc-tagged mouse HRS (Myc-HRS) (mouse) (UniProt Q99LI8); assay: co-IP; Myc-HRS, Myc-HRS-ΔCC or GFP co-expressed with DYS-HA in HEK293 cells; DYS-HA detected in the immunoprecipitates from cell lysates
[4] = target: Myc-tagged mouse HRS missing the coiled-coil domain (Myc-HRS-ΔCC) (mouse) (UniProt Q99LI8); assay: as above

B1: HA-tagged dysbindin (DYS-HA) (protein, UniProt Q91WZ8 1-352)
chain: MLETLRERLLSVQQDFTSGLKTLSDKSREAKVKGKPRTAPRLPKYSAGLELLSRYEDAWAALHRRAKECADAGELVDSEVVMLSAHWEKKRTSLNELQGQLQQLPALLQDLESLMASLAHLETSFEEVENHLLHLEDLCGQCELERHKQAQAQHLESYKKSKRKELEAFKAELDTEHTQKALEMEHTQQLKLKERQKFFEEAFQQDMEQYLSTGYLQIAERREPMGSMSSMEVNVDVLEQMDLMDISDQEALDVFLNSGGEDNIVMSPGVEMESNPNQNEMSLQIPSPSESASQPPASPSACTDLDTADAPLIQSDEEEVQVDTALVTLHTDRKSTPGVSDDSDQCDSTQDI
binding [1]: binds
binding [2]: no binding
binding [3]: binds
binding [4]: no binding
